Laboratory results taken from PubChem BioAssay AID434947 (Broad Institute, 2010).
Out of some 2,200 compounds screened, about 15 (0.7%) were called active.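 Rule for the calls: active = fitted half-maximal concentration for loss of luminescence signal no more than a set limit of log units above the top tested concentration; inconclusive = flat fit with 30 to 70% signal loss, or invalid fit; inactive = half-maximal concentration above that set limit.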 Some of the results follow.

Assay: ADP-Glo luciferase signal interference – biochemical, luminescence, cell-free, homogeneous, artefact control for GSK3beta inhibitor project, dose response (AID 434947);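 note: kinase-free counter screen of ADP-Glo detection reagents for GSK3beta hits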
Conditions: Cell-free ADP-Glo reagents, 5 uM ADP

EC50, inactive:
Cc1ccc(S(=O)(=O)N(C)CC(=O)N2CCCc3ccccc32)cc1 > 30 µM
O=C(Nc1cccc(Cl)c1)Nc1ccnc(-c2cccnc2)n1 > 30 µM
O=C(OCCN1CCOCC1)c1ccc(O)cc1 > 30 µM
CC(=O)c1sc(NC(=O)CCNC(=O)c2ccco2)nc1-c1ccccc1 > 30 µM
CCn1nc(NC(=O)CC(C)C)c2cc3ccc(C)cc3nc21 > 30 µM
COc1cc2c(O)c3c(c(-c4ccc5c(c4)OCO5)c2cc1OC)C(=O)OC3 > 30 µM
COc1cc(/C=N/NC(=O)COc2ccc([N+](=O)[O-])cc2)ccc1OCC(=O)N1CCOCC1 > 30 µM
CCn1c(SCC(=O)Nc2ccc(Br)cn2)nnc1C1CC1 > 30 µM
COc1ccc(CNCC2COc3ccccc3O2)cc1 (centres undefined) > 30 µM
COc1ccc(-c2nnc3ccc(SCc4ccccc4)nn23)cc1 > 30 µM
COc1cc(/C=N/NC(=O)c2ccc3ccccc3c2)ccc1Oc1ccc([N+](=O)[O-])cn1 > 30 µM
COCCCNc1nc(N)c([N+](=O)[O-])c(NCC2CCCO2)n1 (centres undefined) > 30 µM
Cc1nc(Nc2ccc(S(N)(=O)=O)cc2)sc1C(=O)Nc1ccccc1 > 30 µM
CN(c1ncnc(N)c1[N+](=O)[O-])C1CCCCC1 > 30 µM
Cc1cc2oc(=O)cc(Cn3ccnc3)c2cc1O > 30 µM
COc1ccc(C(=O)c2ccsc2N)cc1 > 30 µM
COc1ccc(Nc2nc(N)nc(CSc3nnc(C)s3)n2)cc1 > 30 µM
COc1ccc(/C=C2\SC(=Nc3ccccc3)NC2=O)cc1 > 30 µM
Cc1[nH]nc2c1C(c1ccc(N(C)C)cc1)C1=C(CC(C)(C)CC1=O)N2 (centres undefined) > 30 µM
Cc1nn(-c2ccccn2)c2c1C(c1ccncc1)C1=C(CC(C)(C)CC1=O)N2 (centres undefined) > 30 µM
O=C(O)c1ccc2c3n(nc2c1)-c1ccc(Cl)cc1CO3 > 30 µM
O=C(CCc1nnc(CCCCc2ccccc2)o1)NCc1cccc(F)c1 > 30 µM
Cc1ccc2cc3c(NC(=O)C4CCCO4)nn(CC(C)C)c3nc2c1 (centres undefined) > 30 µM
O=C(O)COCC(=O)N1CCN(C(c2ccccc2)c2ccccc2)CC1 > 30 µM
COc1cccc2c1cc1c(=O)n(CC(=O)NCCCc3ccccc3)nc(C)n12 > 30 µM
O=C(NC1CCCCC1)C(c1ccc(F)cc1)N(Cc1ccccc1)C(=O)CN1C(=O)c2ccccc2S1(=O)=O (centres undefined) > 30 µM
COc1ccc(S(=O)(=O)Nc2c(C(=O)O)[nH]c3ccc(OC)cc23)c(OC)c1 > 30 µM
CCCCC(=O)Nc1cc(C)c(NC(=O)c2cccs2)cn1 > 30 µM
COc1ccc(C)cc1NC(=O)CN(C)S(=O)(=O)c1ccc2c(c1)CC(C)N2C(C)=O (centres undefined) > 30 µM
N/C(=N\O)c1ccc(Oc2ccccc2Cl)c([N+](=O)[O-])c1 > 30 µM
O=C(NCCCN1CCCC1=O)c1c(O)nc2sccn2c1=O > 30 µM
COc1ccccc1N1CCN(/N=C/c2ccc(Cl)c([N+](=O)[O-])c2)CC1 > 30 µM
O=C(CSc1nnc(CNC(=O)c2cccc(C(F)(F)F)c2)o1)NC1CCCCC1 > 30 µM
CCCCc1cc(=O)oc2cc(O)cc(O)c12 > 30 µM
O=C(CSc1nnc(COc2ccc(Cl)cc2)o1)N1c2ccccc2CCc2ccccc21 > 30 µM
COc1ccc(-c2cc(C(F)(F)F)nc(SCCC(=O)N3CCOCC3)n2)cc1 > 30 µM
c1ccc(Nc2nc(-c3ccncc3)nc3ccccc23)cc1 > 30 µM
Cc1c(C#N)c(O)[nH]c(=O)c1N=Nc1ccc(S(N)(=O)=O)cc1 > 30 µM
O=C(O)c1ccccc1NCc1ccncc1 > 30 µM
CCCn1nc(NC(=O)C2CCCO2)c2cc3cccc(C)c3nc21 (centres undefined) > 30 µM
O=c1oc2cc(O)ccc2c2c1CCCC2 > 30 µM
COc1ccc2nc3c(cc2c1)c(NC(=O)c1cccs1)nn3CC(C)C > 30 µM
CSc1nsc(/C=C/Nc2ccc(Cl)cc2)c1C#N > 30 µM
COc1ccc(C2C(C#N)=C(C)NC3=C2C(=O)CC(C)(C)C3)cc1 (centres undefined) > 30 µM
CCOC(=O)CC(=O)CSc1ccc2nnc(-c3ccc(F)cc3)n2n1 > 30 µM
CC(=O)N1CCC(=O)Nc2ccc([N+](=O)[O-])cc21 > 30 µM
COc1ccc(-c2nn(-c3ccccc3)cc2N)cc1 > 30 µM
Fc1ccccc1/C=N/Nc1ncnc2nc[nH]c12 > 30 µM
COCCOc1ccc(C(F)(F)F)cc1NC(=O)COC(=O)c1cc[n+]([O-])cc1 > 30 µM
O=c1cc(NCc2ccccc2)nc2n1CCCS2 > 30 µM
O=C1/C(=C/C=C/c2ccccc2)Oc2c1ccc(O)c2CN1CCN(CCO)CC1 > 30 µM
Nc1nc(Nc2ccc(Cl)cc2)nc(NCCO)c1[N+](=O)[O-] > 30 µM
c1ccc(Nc2ccnc(Nc3ccccc3)n2)cc1 > 30 µM
COc1ccc(-c2nn(CCC#N)cc2/C=N/O)cc1 > 30 µM
C=CCNc1nc(N)c([N+](=O)[O-])c(NCCO)n1 > 30 µM
O=C(Nc1ccncc1)Nc1ccncc1 > 30 µM
Nc1ncc(-c2ccccc2)c(-c2ccc(O)cc2O)n1 > 30 µM
O=C(N/N=C/c1ccc(-c2ccc(Cl)c(C(=O)O)c2)o1)c1cc2c(ccc3ccccc32)o1 > 30 µM
Nc1nc(F)nc2c1ncn2[C@@H]1O[C@H](CO)[C@@H](O)[C@@H]1O > 30 µM

2 consecutive compounds already listed, for reference:
EC50, inactive:
CC(=O)c1sc(NC(=O)CCNC(=O)c2ccco2)nc1-c1ccccc1 > 30 µM
CCn1nc(NC(=O)CC(C)C)c2cc3ccc(C)cc3nc21 > 30 µM
